Results on 2 substances are retold here after publication PMC4263763, “Crystal Structure of Calcium Binding Protein-5 from Entamoeba histolytica and Its Involvement in Initiation of Phagocytosis of Human Erythrocytes” (PLoS Pathogens, 2014).

The target of test [1] is T1, Second IQ motif peptide of heavy chain myosin (myosin II) (Entamoeba histolytica).
T1 sequence (peptide): LQACARAFAARKHFS
In words: SPR; both purified. On the technique in general: SPR reads the build-up and loss of mass on a sensor chip optically.

Test [2] addresses T2, IQ motif peptide of myosin 1B (native) (Entamoeba histolytica).
T2 sequence (peptide): IQKAWKGYRNRKR
Nature of the test: SPR; both purified.

Results are given in words; binding and its absence hold for the method and conditions named. Tags and fused reporters may be left off the sequences shown.

In the case of “Entamoeba histolytica calcium binding protein-5 (EhCaBP5), recombinant”, the binding entry in test [1] is listed as “no binding (tested: up to 2000 nM)”. With EhCaBP3 (Entamoeba histolytica), the binding result in test [2] was “no binding (tested: 750 nM)”.
